The record followed here is article PMC8615847.

Chains of the proteins cited; added tags and fusions are not shown.
UniProt O55242: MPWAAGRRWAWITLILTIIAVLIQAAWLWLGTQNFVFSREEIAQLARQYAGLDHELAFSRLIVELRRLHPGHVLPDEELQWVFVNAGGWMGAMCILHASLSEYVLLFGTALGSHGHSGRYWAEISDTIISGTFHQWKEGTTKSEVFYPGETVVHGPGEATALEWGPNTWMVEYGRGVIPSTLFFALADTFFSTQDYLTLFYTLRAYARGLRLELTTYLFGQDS

Assay [1] deals with recombinant murine voltage-dependent calcium channel subunit delta2, (α2)δ2 peptide (mouse) (UniProt Q6PHS9). Put plainly: pull-down; (α2)δ2 peptides with NR1 C1 when the NR1 C1 HR1-HR2 interaction was disrupted (Supplementary Figure S9D); both purified.
Assay [2] has the same target. Briefly: pull-down; (α2)δ2 peptides with σ1R, HINT1 or CaM and the effect of calcium, by the protocol used for immobilised (α2)δ1 (Supplementary Figure S9A-C); both purified.
Compound in assay [3]: C terminal truncated (−30 aa) (α2)δ1 peptide (mouse)
Put plainly: pull-down; (α2)δ1 peptides (full or truncated) covalently attached to NHS-activated Sepharose; prey 100 nM (σ1R 30 or 100 nM, or increasing) in 300 µL 50 mM Tris-HCl pH 7.4, 0.2% CHAPS, increasing CaCl2 or 2.5 mM CaCl2, 30 min at RT; Western blot; no disrupting NR1 peptide; both purified. For orientation: A western blot detects proteins with antibodies after separation by electrophoresis.

No constants are given. Whether binding was seen depends on the method and setting. Binding calls can cover weak binding; strength is not graded here. For some of these results: Where a sequence is shown, tags or fusion partners need not be part of it.

Consider “cytosolic C0-C1-C2 region of the glutamate NMDAR NR1 subunit (from UniProt P35438-1 834-938) (domain or fragment)”, for which, in assay [1], the binding entry is “binds”.

As to “recombinant sigma 1 receptor (from UniProt O55242 1-223)”, the binding entry in assay [2] is “binds”.

B1: recombinant histidine triad nucleotide-binding protein 1 (protein, UniProt P70349 1-126)
chain: MADEIAKAQVAQPGGDTIFGKIIRKEIPAKIIFEDDRCLAFHDISPQAPTHFLVIPKKHISQISVADDDDESLLGHLMIVGKKCAADLGLKRGYRMVVNEGADGGQSVYHIHLHVLGGRQMNWPPG
On to B1, for which the binding result is given as “no binding” in assay [2] and “binds” in assay [3].
